The test concerns the target T1, full-size Xmas-2 N-terminally fused with three FLAG epitopes (D. melanogaster) (UniProt Q9U3V9).
T1 sequence: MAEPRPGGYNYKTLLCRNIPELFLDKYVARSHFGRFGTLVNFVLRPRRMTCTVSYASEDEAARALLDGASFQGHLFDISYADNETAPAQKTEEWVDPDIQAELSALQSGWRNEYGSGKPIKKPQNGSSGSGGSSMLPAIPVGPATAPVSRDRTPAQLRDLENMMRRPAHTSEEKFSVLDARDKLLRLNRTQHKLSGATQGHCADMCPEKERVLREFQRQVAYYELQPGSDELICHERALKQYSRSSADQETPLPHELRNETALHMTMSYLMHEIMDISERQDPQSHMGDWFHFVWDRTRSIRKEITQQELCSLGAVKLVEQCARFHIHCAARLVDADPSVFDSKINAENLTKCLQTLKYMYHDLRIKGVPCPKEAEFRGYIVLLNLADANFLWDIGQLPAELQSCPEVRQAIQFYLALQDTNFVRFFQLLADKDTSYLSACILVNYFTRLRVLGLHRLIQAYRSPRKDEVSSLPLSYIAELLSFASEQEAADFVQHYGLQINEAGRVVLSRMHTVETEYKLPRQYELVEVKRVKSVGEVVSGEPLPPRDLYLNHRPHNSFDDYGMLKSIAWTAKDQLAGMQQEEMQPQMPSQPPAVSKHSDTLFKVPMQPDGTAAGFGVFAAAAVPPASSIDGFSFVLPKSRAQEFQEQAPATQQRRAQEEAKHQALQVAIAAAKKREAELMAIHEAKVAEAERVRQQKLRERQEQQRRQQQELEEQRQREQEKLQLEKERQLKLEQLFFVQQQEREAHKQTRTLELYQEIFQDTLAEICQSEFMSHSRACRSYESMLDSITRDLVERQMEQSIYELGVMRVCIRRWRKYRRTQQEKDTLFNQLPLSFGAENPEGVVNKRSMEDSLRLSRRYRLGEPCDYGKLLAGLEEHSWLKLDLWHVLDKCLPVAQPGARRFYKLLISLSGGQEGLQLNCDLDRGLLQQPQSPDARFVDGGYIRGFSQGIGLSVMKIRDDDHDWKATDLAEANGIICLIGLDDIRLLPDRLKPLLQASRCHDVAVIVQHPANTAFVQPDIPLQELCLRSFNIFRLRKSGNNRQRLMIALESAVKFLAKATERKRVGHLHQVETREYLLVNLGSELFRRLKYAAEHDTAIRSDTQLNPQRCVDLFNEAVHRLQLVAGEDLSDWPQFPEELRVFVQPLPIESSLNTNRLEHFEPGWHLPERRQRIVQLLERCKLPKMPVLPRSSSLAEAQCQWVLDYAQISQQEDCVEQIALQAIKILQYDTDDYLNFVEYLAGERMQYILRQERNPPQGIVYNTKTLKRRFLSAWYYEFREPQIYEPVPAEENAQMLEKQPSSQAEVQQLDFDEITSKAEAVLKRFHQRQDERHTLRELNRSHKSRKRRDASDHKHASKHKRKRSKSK
The experiment in a line: co-IP; tagged PCID2 or PCID2^1-360 co-expressed with tagged Xmas-2 in S2 cells; lysate (0.4 M NaCl, 0.5% NP-40 buffer) pretreated with DNase I and RNase; precipitated with antibodies against the FLAG or HA epitope.

No constants are given. Whether binding was seen depends on the method and setting. In cells and extracts the contact can be indirect. Some entries that bind do so weakly or less than the wild type. Where a sequence is shown, tags or fusion partners need not be part of it.

B1: full-size PCID2 fused with the HA epitope (protein, UniProt Q9VTL1 1-395)
chain: MFGTVNNYLSGVLHAAQDLDGESLATYLSLRDVHVQNHNLYIAQPEKLVDRFLKPPLDEVVSAHLKVLYHLAQEPPGYMEAYTQQSAACGAVVRLLQQLKDENWCLPLMYRVCLDLRYLAQACEKHCQGFTPGHVLEKAADCIMACFRVCAADGRASEEDTKRLGMMNLVNQLFKIYFRINKLHLCKPLIRAIDNCIFKDSFPLPEQITYKYFVGRRAMFDSNYQAAVQYLSYAFSNCPDRFASNKRLILIYLVPVKMLLGYLPSKSLLQRYDLLLFLDLAMAMKAGNVNRFDEIVRDQELVLIRSGIYLLVEKLKFLVYRNLFKKVFVIRKSHQLDMGDFLSALHFVGLTDVSLDETHCIVANLIYDGKIKGYISHAHNKLVVSKQNPFPSVSL
For B1, the binding entry is given as “binds”.

B2: PCID2^1–360 fused with the HA epitope (domain or fragment, UniProt Q9VTL1 1-360)
chain: MFGTVNNYLSGVLHAAQDLDGESLATYLSLRDVHVQNHNLYIAQPEKLVDRFLKPPLDEVVSAHLKVLYHLAQEPPGYMEAYTQQSAACGAVVRLLQQLKDENWCLPLMYRVCLDLRYLAQACEKHCQGFTPGHVLEKAADCIMACFRVCAADGRASEEDTKRLGMMNLVNQLFKIYFRINKLHLCKPLIRAIDNCIFKDSFPLPEQITYKYFVGRRAMFDSNYQAAVQYLSYAFSNCPDRFASNKRLILIYLVPVKMLLGYLPSKSLLQRYDLLLFLDLAMAMKAGNVNRFDEIVRDQELVLIRSGIYLLVEKLKFLVYRNLFKKVFVIRKSHQLDMGDFLSALHFVGLTDVSLDETHC
Regarding B2, the binding entry is “no binding”.

Values taken from PMC10378293.
